{"source": "PubChem BioAssay AID504793 – Drosophila RNAi Screening Center – 2011", "screen": "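Knock-downs allowing continued mitosis even though DNA is damaged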 (primary screen)", "system": "Drosophila S2R+ cells", "knock-down reagent": "long dsRNA against Drosophila genes, about 0.25 µg dsRNA per well", "timing": "4 days of dsRNA, then 4 hours of drug before read-out", "conditions": "doxorubicin 0.5 µM for 4 hours to cause double-strand breaks, in cells also given a low, harmless dose of dsRNA against nbs to sensitise the assay", "measurement": "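Per-well count of mitotic cells stained for phospho-histone H3 after doxorubicin exposure, used as mitotic index; counts are raw and not normalised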", "direction": "mitotic cells: higher = more cells in mitosis, weaker G2 arrest", "hit rule": "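Genes are called active only when high mitotic counts were reproduced with independent dsRNAs and mitosis was checked for delay without damage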", "calls": "active = confirmed in follow-up tests; inactive = not confirmed", "note": "The deposit covers about 23,000 reagents; this is an unselected part of those with a known target gene and a result. Of all reagents, 62 (0.27%) were called active. 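Calls come from follow-up tests whose scores are not deposited, so confirmed genes may have low counts here; counts are not normalised per plate.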 The raw values are shown without normalisation. Reagent sequences are not shown."}
{"Target gene": "Smvt (Sodium-dependent multivitamin transporter)", "amplicon": "DRSC15426", "mitotic cells, replicate 1": 17, "call": "inactive"}
{"Target gene": "CG32536", "amplicon": "DRSC28001", "mitotic cells, replicate 1": 7, "call": "inactive"}
{"Target gene": "RFeSP (Rieske iron-sulfur protein)", "amplicon": "DRSC00702", "mitotic cells, replicate 1": 11, "call": "inactive"}
{"Target gene": "RFeSP (Rieske iron-sulfur protein)", "amplicon": "DRSC27607", "mitotic cells, replicate 1": 3, "call": "inactive"}
{"Target gene": "CG15368", "amplicon": "DRSC23291", "mitotic cells, replicate 1": 7, "call": "inactive"}
{"Target gene": "CG15368", "amplicon": "DRSC25848", "mitotic cells, replicate 1": 8, "call": "inactive"}
{"Target gene": "Kap-alpha3 (karyopherin alpha3)", "amplicon": "DRSC16976", "mitotic cells, replicate 1": 15, "call": "active"}
{"Target gene": "CG30087", "amplicon": "DRSC21677", "mitotic cells, replicate 1": 12, "call": "inactive"}
{"Target gene": "CG30087", "amplicon": "DRSC27057", "mitotic cells, replicate 1": 9, "call": "inactive"}
{"Target gene": "Tnks (tankyrase)", "amplicon": "DRSC14154", "mitotic cells, replicate 1": 19, "call": "inactive"}
{"Target gene": "CG17782", "amplicon": "DRSC23227", "mitotic cells, replicate 1": 3, "call": "inactive"}
{"Target gene": "Grl58a (Gustatory receptor-like 58a)", "amplicon": "DRSC04145", "mitotic cells, replicate 1": 5, "call": "inactive"}
{"Target gene": "CG5783", "amplicon": "DRSC02894", "mitotic cells, replicate 1": 6, "call": "inactive"}
{"Target gene": "IntS4 (Integrator 4)", "amplicon": "DRSC17810", "mitotic cells, replicate 1": 6, "call": "inactive"}
{"Target gene": "CG15345 (retired record)", "amplicon": "DRSC18030", "mitotic cells, replicate 1": 16, "call": "inactive"}
{"Target gene": "CG15345 (retired record)", "amplicon": "DRSC22712", "mitotic cells, replicate 1": 8, "call": "inactive"}

Hits, among the entries above:
{"Target gene": "Kap-alpha3 (karyopherin alpha3)", "amplicon": "DRSC16976", "mitotic cells, replicate 1": 15, "call": "active"}

Continued:
{"Target gene": "N (Notch)", "amplicon": "DRSC18685", "mitotic cells, replicate 1": 9, "call": "inactive"}
{"Target gene": "CG6431", "amplicon": "DRSC02956", "mitotic cells, replicate 1": 5, "call": "inactive"}
{"Target gene": "yuri (yuri gagarin)", "amplicon": "DRSC01453", "mitotic cells, replicate 1": 3, "call": "inactive"}
{"Target gene": "yuri (yuri gagarin)", "amplicon": "DRSC01943", "mitotic cells, replicate 1": 3, "call": "inactive"}
{"Target gene": "yuri (yuri gagarin)", "amplicon": "DRSC01972", "mitotic cells, replicate 1": 3, "call": "inactive"}
{"Target gene": "yuri (yuri gagarin)", "amplicon": "DRSC28910", "mitotic cells, replicate 1": 3, "call": "inactive"}
{"Target gene": "Mettl3 (Methyltransferase like 3)", "amplicon": "DRSC15921", "mitotic cells, replicate 1": 9, "call": "inactive"}
{"Target gene": "Mettl3 (Methyltransferase like 3)", "amplicon": "DRSC27423", "mitotic cells, replicate 1": 7, "call": "inactive"}
